Paper doi:10.1101/2023.08.08.552464
Numbering of substitutions follows the chain as printed. Results are given in words; binding and its absence hold for the method and conditions named. For some of these results: Binding calls can cover weak binding; strength is not graded here. Tags and fused reporters may be left off the sequences shown.

Legend:
[1] = biological target: T1, GST-tagged F1 region of MP-GAP (AA255-641) (human) (UniProt Q6P4F7); assay: pull-down
T1 sequence: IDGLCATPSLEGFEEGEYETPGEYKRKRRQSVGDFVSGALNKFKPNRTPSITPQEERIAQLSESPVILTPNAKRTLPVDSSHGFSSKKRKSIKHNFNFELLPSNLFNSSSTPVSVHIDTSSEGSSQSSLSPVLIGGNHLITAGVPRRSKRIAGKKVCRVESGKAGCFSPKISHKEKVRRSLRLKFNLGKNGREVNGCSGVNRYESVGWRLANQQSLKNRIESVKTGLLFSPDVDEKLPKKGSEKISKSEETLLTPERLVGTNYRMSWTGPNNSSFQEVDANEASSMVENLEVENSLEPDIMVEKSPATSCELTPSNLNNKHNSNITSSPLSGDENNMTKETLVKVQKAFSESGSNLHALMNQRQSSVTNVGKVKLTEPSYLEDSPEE

[2] = biological target: T2, GST-tagged phosphomimetic F1 region of MP-GAP (S285D, S304D, S345D) (human) (UniProt Q6P4F7); assay: pull-down
T2 sequence: T1 sequence with S31D, S50D, S91D

[3] = biological target: T3, GST-tagged F2 region of MP-GAP (AA641-1023) (human) (UniProt Q6P4F7); assay: condition: 1 µg 6xHis-GAP domain with 2 µg GST fragment
T3 sequence: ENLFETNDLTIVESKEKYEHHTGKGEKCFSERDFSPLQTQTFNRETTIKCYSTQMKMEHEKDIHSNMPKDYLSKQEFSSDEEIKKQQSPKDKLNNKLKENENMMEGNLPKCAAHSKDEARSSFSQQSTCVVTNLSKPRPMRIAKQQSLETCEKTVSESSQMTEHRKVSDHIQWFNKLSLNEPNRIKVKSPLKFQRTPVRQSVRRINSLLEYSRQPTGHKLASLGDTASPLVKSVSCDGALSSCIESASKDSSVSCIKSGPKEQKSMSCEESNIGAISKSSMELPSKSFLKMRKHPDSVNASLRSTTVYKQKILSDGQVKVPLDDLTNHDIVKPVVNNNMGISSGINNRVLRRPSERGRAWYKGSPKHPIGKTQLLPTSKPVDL

[4] = biological target: T4, GST-tagged GAP domain of MP-GAP (AA2-253) (human) (UniProt Q6P4F7); assay: as above
T4 sequence: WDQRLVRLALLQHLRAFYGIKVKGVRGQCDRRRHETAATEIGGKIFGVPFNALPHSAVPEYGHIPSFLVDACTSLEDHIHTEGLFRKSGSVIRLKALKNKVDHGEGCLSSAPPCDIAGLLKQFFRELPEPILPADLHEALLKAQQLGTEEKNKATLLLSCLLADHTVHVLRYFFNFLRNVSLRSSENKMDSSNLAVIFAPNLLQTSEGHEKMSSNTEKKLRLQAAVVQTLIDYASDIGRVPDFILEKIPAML

6xHis-tagged GAP domain of MP-GAP (human) (domain or fragment)
binding [1]: binds | binding [2]: binds | binding [3]: no binding | binding [4]: no binding
